According to publication PMC7819943, “Rice protein-binding microarrays: a tool to detect cis-acting elements near promoter regions in rice”:
Some of the results follow.

What follows are sequences tested against T1, OsSMF1 (Oryza sativa, UniProt Q6ZLB0 1-436) (assay: protein-binding microarray (RPBM); PBS, 2% BSA, 51.3 ng/ul salmon testes DNA, 50 uM zinc acetate, 200 nM TF, 25 C, 1 h; high values mean tight binding). Conditions: protein: recombinant; tags: N-terminal polyhistidine and DsRed monomer fusion (pET32a); chain copies: 2; label: CyDye5-dUTP incorporated in the synthesized complementary strand; 3' TTTTT single-stranded linker to array surface; dsDNA, one strand shown.
T1 sequence: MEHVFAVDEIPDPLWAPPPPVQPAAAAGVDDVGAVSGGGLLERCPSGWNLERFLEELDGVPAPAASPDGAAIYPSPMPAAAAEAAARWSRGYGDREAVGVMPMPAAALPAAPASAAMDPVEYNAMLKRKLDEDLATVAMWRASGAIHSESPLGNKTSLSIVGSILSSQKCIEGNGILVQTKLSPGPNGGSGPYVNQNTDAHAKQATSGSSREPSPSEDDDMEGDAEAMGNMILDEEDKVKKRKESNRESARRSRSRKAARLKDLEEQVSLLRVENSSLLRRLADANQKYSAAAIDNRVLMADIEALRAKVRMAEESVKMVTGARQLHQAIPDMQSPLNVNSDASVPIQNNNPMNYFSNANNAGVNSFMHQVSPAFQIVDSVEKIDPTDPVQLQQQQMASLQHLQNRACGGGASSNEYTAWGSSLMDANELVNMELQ
Method in brief: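 In PBS with 2% BSA, salmon testes DNA and 50 µM zinc acetate, 200 nM protein was incubated on a custom Agilent array at 25 °C for 1 h and then washed off. The array had been made double-stranded by primer extension with Cy5-dUTP and blocked with 2% BSA. The proteins were transcription factors fused N-terminally to polyhistidine and DsRed, expressed in E. coli BL21-CodonPlus and purified on Ni–NTA. The binding signal is per-feature fluorescence intensity (arbitrary units) from an Axon 4000B scanner.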

“GGAGGACTATCCTGAAAATGACATATACAGTACATCATGTCGGAGTCACCTAGTGCAG” was tested. Which binding signal did it give?
Its binding signal is 3240 fluorescence intensity (a.u.).

“AGGTGGCATATTGACATCGTTAGCATTTTCCTGCAAATACCGGAGTCACCTAGTGCAG” was tested. Which binding signal did it give?
Its binding signal is 3410 fluorescence intensity (a.u.).

For “CCTCTTTCTCTCGTACGATCGTGCCGCCTGACGCCTGCTGCGGAGTCACCTAGTGCAG”, which binding signal is on record?
Its binding signal is 3800 fluorescence intensity (a.u.).

Which binding signal does the source give for “CTGCTTTCTGGTTCATCTATGATAATATGACTGTGCTGCTCGGAGTCACCTAGTGCAG” here?
The binding signal was 4680 fluorescence intensity (a.u.).

How did the binding signal turn out when “TTGGAGAGGCACATGCTGATGAGGCGGAGGAGGGGCGGCGCGGAGTCACCTAGTGCAG” was run?
Its binding signal is 5340 fluorescence intensity (a.u.).

For “ATCAGAAGTACGGCCACGTCAGAACAAGCAGAGAAAGGCCCGGAGTCACCTAGTGCAG”, which binding signal is on record?
The binding signal was 10000 fluorescence intensity (a.u.).

Which binding signal does the source give for “CAACCTCCGCCGCCGCCGCCGCCGTCCAGGAACTGACCGGCGGAGTCACCTAGTGCAG” here?
Its binding signal is 3960 fluorescence intensity (a.u.).

For “AAATGCATCAGTAAACCAGCATATTACACGGATCAAATCACGGAGTCACCTAGTGCAG”, which binding signal is on record?
Its binding signal is 4350 fluorescence intensity (a.u.).

For “GCCCGACCACATCCCTCTCCCTCCTTACGCCGGCACGAATCGGAGTCACCTAGTGCAG”, which binding signal is on record?
The binding signal was 3430 fluorescence intensity (a.u.).

Which binding signal does the source give for “TCTTGATTATCGGTGTGGCAGTGGCAGTTCAGTGGCACTGCGGAGTCACCTAGTGCAG” here?
Its binding signal is 3460 fluorescence intensity (a.u.).

Which binding signal does the source give for “CCGTGGTCTTGTCTATGTGGCATGCTACGTGGACGATGACCGGAGTCACCTAGTGCAG” here?
The binding signal was 7300 fluorescence intensity (a.u.).

“GCCGGTGGTCCCACCGTCCACGTCCCACGCCGGAGCTCGTCGGAGTCACCTAGTGCAG” was tested. Which binding signal did it give?
The binding signal was 7920 fluorescence intensity (a.u.).

Which binding signal does the source give for “CTACCTTGGCCACAACGCCCACGTACACCTTCCATTGTTGCGGAGTCACCTAGTGCAG” here?
Its binding signal is 6250 fluorescence intensity (a.u.).

“CCTTCGGCCTATGATTCTATGGAAGCCCGTCATGACCAAGCGGAGTCACCTAGTGCAG” was tested. Which binding signal did it give?
Its binding signal is 3140 fluorescence intensity (a.u.).

For “TTGGTTGACACGTGGAGGCGGACATATGGACCCACGTGGACGGAGTCACCTAGTGCAG”, which binding signal is on record?
Its binding signal is 24300 fluorescence intensity (a.u.).

For “GGCTCCAGCCCAACAAGTTCTCGGCCCAACTATCCACGTACGGAGTCACCTAGTGCAG”, which binding signal is on record?
The binding signal was 3430 fluorescence intensity (a.u.).

For “GCGGGTGGGTGGCAGGGTGGGTATACGTACACGTCTCCGACGGAGTCACCTAGTGCAG”, which binding signal is on record?
Its binding signal is 4750 fluorescence intensity (a.u.).

“CCTTCCAGATTGTCCACGCTACCAGTGTCGCCTCCTACTGCGGAGTCACCTAGTGCAG” was tested. Which binding signal did it give?
The binding signal was 3750 fluorescence intensity (a.u.).

For “CCACTGTAGTGGTAAATTGTTGTTTTCTCTGAATTGGTGTCGGAGTCACCTAGTGCAG”, which binding signal is on record?
The binding signal was 6720 fluorescence intensity (a.u.).

Which binding signal does the source give for “GGCCCAGCAGGTAGCATACACGAGCTGCGAGATGAGTCGGCGGAGTCACCTAGTGCAG” here?
The binding signal was 3480 fluorescence intensity (a.u.).

For “ACCAGGGAGCATGAGATCGTGGCGAGTAAATTTGACGGGGCGGAGTCACCTAGTGCAG”, which binding signal is on record?
Its binding signal is 4310 fluorescence intensity (a.u.).

For “AAACTATTAAGCCAAGGAATAAGGATGGAAGCGTCATGCTCGGAGTCACCTAGTGCAG”, which binding signal is on record?
Its binding signal is 3520 fluorescence intensity (a.u.).

With “ACTAGTACCATCATCGCACCCCACACCAACTGACACGTGGCGGAGTCACCTAGTGCAG” as the sequence, how does the binding signal read?
The binding signal was 24800 fluorescence intensity (a.u.).

How did the binding signal turn out when “TCAATGATATTCCAACTCACTGTCACTGTCATATGATCTGCGGAGTCACCTAGTGCAG” was run?
Its binding signal is 5910 fluorescence intensity (a.u.).

“GAAGAGGAAGCCGGACACTGAATCGCGGGAGAGGTGTGTGCGGAGTCACCTAGTGCAG” was tested. Which binding signal did it give?
The binding signal was 3140 fluorescence intensity (a.u.).

“TGCTGCCGGCGGTGGCGGGGCGGCCGAGGTGGCGGCTGCTCGGAGTCACCTAGTGCAG” was tested. Which binding signal did it give?
Its binding signal is 3660 fluorescence intensity (a.u.).

“GAAGAGAAGTCGTCAGGTGATATTTCGTGGGCCAAATGGGCGGAGTCACCTAGTGCAG” was tested. Which binding signal did it give?
Its binding signal is 34000 fluorescence intensity (a.u.).

With “AAATAAACAAGACAAGCATTTCCCTTACGGTTAAGAGTATCGGAGTCACCTAGTGCAG” as the sequence, how does the binding signal read?
Its binding signal is 4290 fluorescence intensity (a.u.).

Which binding signal does the source give for “CCTTCCTCTTGTAACAGAAGGGTACTTACGTGGCAGCCCACGGAGTCACCTAGTGCAG” here?
Its binding signal is 17100 fluorescence intensity (a.u.).

Which binding signal does the source give for “TTTGATCCAAGGGTCGTCGTCGTCGTCGTTAGTCTAATGACGGAGTCACCTAGTGCAG” here?
The binding signal was 3360 fluorescence intensity (a.u.).

How did the binding signal turn out when “TCCCATGCCGCCTCACCGGTGACCACCTACCCGCCCTTCCCGGAGTCACCTAGTGCAG” was run?
The binding signal was 3930 fluorescence intensity (a.u.).

Which binding signal does the source give for “CGCTTTGTTCATGGATGCCACGTGTCAACGCCTGATTCGACGGAGTCACCTAGTGCAG” here?
Its binding signal is 23500 fluorescence intensity (a.u.).

With “ACTCATATCACATGCCTGAAATTCTTGGAAGGCTATCTGACGGAGTCACCTAGTGCAG” as the sequence, how does the binding signal read?
The binding signal was 23100 fluorescence intensity (a.u.).

Which binding signal does the source give for “AGCACCACACTTGTACCTTACATGGCTCATGTGTAATTGACGGAGTCACCTAGTGCAG” here?
Its binding signal is 4270 fluorescence intensity (a.u.).

“GCAAAATACATAATGAAGTGTGATGACGATACATTTGTTACGGAGTCACCTAGTGCAG” was tested. Which binding signal did it give?
The binding signal was 3160 fluorescence intensity (a.u.).

Which binding signal does the source give for “GCACTGGAATGCCGCCGCCGTGCCCGCCGCGTGGTCTTGCCGGAGTCACCTAGTGCAG” here?
Its binding signal is 3190 fluorescence intensity (a.u.).

How did the binding signal turn out when “ACATGCATGCTTCACACTGCCACCTAGATTAATTACTTCCCGGAGTCACCTAGTGCAG” was run?
Its binding signal is 5030 fluorescence intensity (a.u.).

How did the binding signal turn out when “CCTATTCCTTGTCACTATGACACCGTCATATATCTATGCACGGAGTCACCTAGTGCAG” was run?
The binding signal was 3420 fluorescence intensity (a.u.).

“GCGGCAAGGCGACGCTCCCAGGCGGTGGCACGTCAGTTCCCGGAGTCACCTAGTGCAG” was tested. Which binding signal did it give?
Its binding signal is 3940 fluorescence intensity (a.u.).

For “GGTAACGAAGGTTGAGGTCGACCTCGAGCATGTCCCAAGCCGGAGTCACCTAGTGCAG”, which binding signal is on record?
The binding signal was 28700 fluorescence intensity (a.u.).

How did the binding signal turn out when “CACTCCGTCACAGTTCACAGCCTCAGAGGCCCAGATCACACGGAGTCACCTAGTGCAG” was run?
The binding signal was 33900 fluorescence intensity (a.u.).

How did the binding signal turn out when “ACAGGAATATCTCTTCGAGGGATTAAAATTCACTCCCACTCGGAGTCACCTAGTGCAG” was run?
Its binding signal is 50800 fluorescence intensity (a.u.).
